Results: PubChem BioAssay AID2551 (National Center for Advancing Translational Sciences (NCATS), 2010)
Hit rate of the full screen: of about 310,000 compounds, about 17,000 (5.5%) were called active. The shares of active, inactive and inconclusive entries below differ from those in the screen. Calls come from the whole dose curve; as a rule, active = well fitted inhibition curve with a large enough effect; inconclusive = small, poorly fitted or top-dose-only effect, or effect the other way; inactive = no such curve, though single readings can be large or run the other way. Where the call is inconclusive, the potency comes from a doubtful curve fit.

By UniProt entry, the sequences of proteins in these tests, tags left out. Where a name states a change or a piece, a line headed by the entry shows the natural chain unless it says otherwise.
UniProt P51450: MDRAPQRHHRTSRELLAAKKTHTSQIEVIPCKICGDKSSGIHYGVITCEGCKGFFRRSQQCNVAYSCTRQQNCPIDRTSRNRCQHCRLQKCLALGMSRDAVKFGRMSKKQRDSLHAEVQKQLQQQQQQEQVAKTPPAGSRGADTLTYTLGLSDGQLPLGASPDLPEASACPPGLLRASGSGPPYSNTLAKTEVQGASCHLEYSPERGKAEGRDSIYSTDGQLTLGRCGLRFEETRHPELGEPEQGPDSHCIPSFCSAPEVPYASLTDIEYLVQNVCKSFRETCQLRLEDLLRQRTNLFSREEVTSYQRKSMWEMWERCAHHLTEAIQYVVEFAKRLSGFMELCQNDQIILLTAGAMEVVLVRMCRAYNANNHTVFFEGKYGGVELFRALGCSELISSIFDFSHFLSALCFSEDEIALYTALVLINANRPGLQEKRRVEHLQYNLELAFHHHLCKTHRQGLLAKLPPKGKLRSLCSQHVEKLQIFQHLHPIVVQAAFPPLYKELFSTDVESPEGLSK

target: Nuclear receptor ROR-gamma (Mus musculus) (UniProt P51450); experiment: qHTS for inhibitors of ROR gamma transcriptional activity; settings: Drosophila S2 Gal4-RORgamma UAS-luciferase reporter, 20 h; activity change, negative = inhibition: at 53.6 µM (top of the series); note: nearly all actives have a fitted effect of over 60% in size
Outline: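 Drosophila S2 cells stably expressing Gal4-DBD/mouse RORγ fusion under metallothionein promoter plus UAS-luciferase; compound 1 h, then 700 uM CuSO4 induction for 20 h at ambient temperature; inhibition read as reduced luminescence.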
% is set by controls: 0 for no effect and ±100 for the full control effect; potency is the fitted concentration of half-maximal effect.

Potency, active:
NC(=O)COc1ccc(C(=O)/C=C2/C(=O)Nc3ccccc32)cc1 7.94 µM
Cc1cc(-c2cccs2)c(C#N)c(=S)[nH]1 10 µM
Cc1ccc(C(=O)Nc2cccc(C(=O)O)c2)cc1 5.01 µM
O=C(COc1ccc(F)cc1)Nc1nccs1 10 µM
COc1ccc(-c2cn(-c3ccc(OC)cc3)c(=S)[nH]2)cc1 0.398 µM
CC1=C(C(=O)OCc2ccccc2)C(c2ccc(Cl)cc2)NC(=O)N1CCCC(=O)O (centres undefined) 15.8 µM
O=C(NNC1=NCCC1)c1ccc(Br)cc1 5.62 µM
COc1cccc(/C=N/NC(=S)NCCc2ccccc2)c1 15.8 µM
Cc1cc(O)c(C(C)(C)C)cc1Sc1cc(C(C)(C)C)c(O)cc1C 10 µM

Of the compounds above, these contain an aryl methoxy group:
Potency, active:
COc1ccc(-c2cn(-c3ccc(OC)cc3)c(=S)[nH]2)cc1 0.398 µM
COc1cccc(/C=N/NC(=S)NCCc2ccccc2)c1 15.8 µM

An excerpt from above in order of length of the SMILES, ascending:
Potency, active:
Cc1cc(-c2cccs2)c(C#N)c(=S)[nH]1 10 µM
Cc1ccc(C(=O)Nc2cccc(C(=O)O)c2)cc1 5.01 µM
COc1cccc(/C=N/NC(=S)NCCc2ccccc2)c1 15.8 µM
COc1ccc(-c2cn(-c3ccc(OC)cc3)c(=S)[nH]2)cc1 0.398 µM

Following part:

Potency, inconclusive:
CCOC(=O)c1c(C)nn(-c2ccc(NC(=O)c3c(C)noc3C)cc2)c1C 35.5 µM [activator, single point]
CCN(c1ccccc1)S(=O)(=O)c1ccc(Cl)c(C(=O)OCC(=O)c2[nH]c(C)c(C(C)=O)c2C)c1 31.6 µM [activator, single point]
O=C(Cc1cccc(C(F)(F)F)c1)Nc1cccc(S(=O)(=O)N2CCCC2)c1 28.2 µM [activator, single point]
Nc1ccc(Oc2ccc3nc(-c4ccccc4)c(-c4ccccc4)nc3c2)cc1 17.8 µM [activator, single point]
COc1ccccc1NC(=O)C1=C(C)NC2=C(C(=O)CC(c3ccc(OC)c(OC)c3)C2)C1c1coc2ccccc2c1=O (centres undefined) 12.6 µM [activator, partial curve]
O=C(NCCn1cc(SCC(=O)N2CCOCC2)c2ccccc21)c1ccccc1 5.62 µM [inhibitor, single point]
COc1ccc(-n2nc(C(=O)NCC(=O)NC(C)C)c3ccccc3c2=O)cc1Cl 14.1 µM [activator, single point]
CC(=O)Nc1cccc(C(=O)NC2CCCc3c2cnn3-c2cc(C)cc(C)c2)c1 (centres undefined) 0.112 µM [activator, full curve, poor fit]
CCCCOc1ccc(C(=O)OCC(=O)NC2CCCC2)cc1 14.1 µM [activator, single point]
N#C/C(=C\c1ccc(OCc2ccc(C(=O)O)cc2)cc1)C(=O)N1CCOCC1 12.6 µM [inhibitor, single point]
COc1ccc(-c2nc(CSCC(=O)NCc3ccco3)c(C)o2)cc1 4.47 µM [inhibitor, full curve, poor fit]
Cc1ccccc1C1CC(c2ccc(Br)cc2)Nc2nc(N)nn21 (centres undefined) 5.01 µM [activator, single point]
CCn1nc2cc(C(=O)NCCc3cccs3)ccc2c1OC 15.8 µM [inhibitor, single point]
CCC(C)c1ccc(NC(=O)C2CC2)cc1 (centres undefined) 6.31 µM [activator, full curve]
COc1ccc(S(=O)(=O)N(C(=O)c2ccco2)c2cc3sc(=O)oc3c3ccccc23)cc1 35.5 µM [inhibitor, single point]
CCOc1ccc(NS(=O)(=O)c2ccc3c(c2)N(C(C)=O)CCO3)cc1 3.98 µM [activator, partial curve, poor fit]
Cc1ccc(Cl)cc1N1CCN(C(=S)NCCc2ccccc2)CC1 35.5 µM [inhibitor, single point]
COc1ccc(-n2c(N)c(Br)c(=O)[nH]c2=O)cc1 0.794 µM [inhibitor, single point]
COc1ccc(-c2sc(Nc3ccccc3)n[n+]2-c2ccc(F)cc2)c(C)c1C 35.5 µM [inhibitor, single point]
O=C(NC1=NCCS1)C1CC(=O)N(c2ccc(Cl)cc2)C1 (centres undefined) 25.1 µM [inhibitor, single point]
CCOC(=O)c1c(NC(=O)C2c3ccccc3Oc3ccccc32)sc(C(C)=O)c1C 31.6 µM [inhibitor, single point]
CCOc1cc(/C=C2\SC(=Nc3ccc(F)cc3)N(c3ccc(F)cc3)C2=O)ccc1OCC(=O)O 2.51 µM [activator, partial curve, poor fit]
Cc1ccccc1C(=O)NNC(=S)NC(=O)c1ccc(Cl)cc1Cl 14.1 µM [inhibitor, single point]
O=C(Nc1cccnc1)c1cnn2cccnc12 2.82 µM [inhibitor, single point]
CCC(=O)Nc1cccc(-n2nnnc2SCC(=O)c2ccc(C)c(C)c2)c1 11.2 µM [activator, partial curve]
CCCOc1ccccc1C1CC(=O)Nc2cc3c(cc21)OCCO3 (centres undefined) 10 µM [activator, partial curve]
COc1ccc(CCN(C)C(=O)c2cc(-c3ccccc3)nc3ccccc23)cc1OC 25.1 µM [activator, single point]
CC1Cc2ccccc2N1CC(=O)NCc1ccccc1Cl (centres undefined) 12.6 µM [activator, single point]
COc1ccc(CN/C=C2\CCCCC2=O)cc1 7.94 µM [activator, partial curve]
COc1ccc(OC)c(-c2csc(NC(=O)Cc3ccccc3F)n2)c1 35.5 µM [inhibitor, single point]
COc1cccc(CNc2nc3ccccc3n2C(C)C)c1O 35.5 µM [activator, single point]
Cc1ccc(C(=O)Nc2ccc3c(c2)OCO3)cc1S(=O)(=O)N1CCCCC1 7.94 µM [activator, partial curve]
O=C(CCn1cnc(-c2ccccc2)c1-c1ccccc1)N/N=C/c1ccccc1O 3.16 µM [inhibitor, full curve, poor fit]
CCCCOc1ccc(Cc2c(COCC)[nH]c(=S)[nH]c2=O)cc1 3.16 µM [inhibitor, single point]
COc1ccc2c(=O)c3c(=O)n(Cc4ccco4)c(C(C)C)nc3oc2c1 7.94 µM [activator, partial curve, poor fit]
CCc1nc(Nc2cccc(O)c2)c2oc3ccccc3c2n1 2.82 µM [inhibitor, full curve, poor fit]
CC(=O)Nc1ccc(S(=O)(=O)NCCSCc2ccccc2Cl)cc1 12.6 µM [activator, partial curve]
Cc1ccc(CSc2nnc(CNc3ccc(F)cc3)o2)cc1 11.2 µM [activator, single point]
COC(=O)[C@@]1(Cc2ccc(F)cc2)[C@H]2c3cc(C(=O)N(C)C)n(Cc4ccc(O)c(OC)c4)c3C[C@H]2CN1C(=O)c1ccccc1 15.8 µM [activator, single point]
Cc1ccc2nsnc2c1NC(=O)c1ccc([N+](=O)[O-])o1 35.5 µM [inhibitor, single point]
CC(=O)c1cccc(NCC(=O)Nc2cc(S(=O)(=O)N3CCCCC3)ccc2C)c1 15.8 µM [activator, single point]
CCc1nc(NCC2CCCO2)c(C#N)c2c1COC(C)(C)C2 (centres undefined) 14.1 µM [activator, single point]
O/N=C(/CCc1ccccc1)C1(O)CCCCC1 35.5 µM [inhibitor, single point]

Activity change, negative = inhibition, inactive:
COc1ccc(CNC(=O)Cn2nc([N+](=O)[O-])c(Br)c2C)cc1 4%
O=C(Nc1cccc(-c2cccc(F)c2)c1)C1CCN(Cc2ccco2)CC1 -21.6%
COc1cccc(Cn2c(=O)c(-c3ccccc3)nc3cnc(N4CCNCC4)nc32)c1 -16.5%
COc1cccc(Nc2nnc(Cc3cccnc3)c3ccccc23)c1 14.6%
N#Cc1c(-c2ccccc2)nc(SCC(=O)N(c2ccccc2)c2ccccc2)[nH]c1=O 1.65%
CCO[C@@H]1OC(C(=O)N2CCN(Cc3ccc4c(c3)OCO4)CC2)=C[C@H](C)[C@H]1CCCO -2.19%
Cc1ccccc1S(=O)Cc1ccc(C(=O)NC2CC2)o1 (centres undefined) -16.8%
CCOc1ccc(CN2CCN(CC(O)Cn3c4ccccc4c4ccccc43)CC2)cc1 (centres undefined) -34.1%
CC[C@H](NC(C)C)[C@H](O)c1ccc(O)c(O)c1 -12.7% [at 16.9 µM]
CSc1ccc(CN(C)Cc2cc(=O)oc3c(C)c(C)ccc23)cc1 8.56%
CCOC(=O)C1CCN(C(=O)c2ccc(Cl)c(S(=O)(=O)N3CCOCC3)c2)CC1 -4.76%
CC/C(=N\NC(=O)CNC(=O)/C=C/c1ccc(OC)cc1)c1ccccc1 3.13%
COc1ccc(CNc2nc(C)c([N+](=O)[O-])c(C)c2C#N)cc1 -21.2%
NC(=O)C1CCN(C(=O)c2ccc3c(=O)n(Cc4ccco4)c(SCC(=O)c4ccc(F)cc4)nc3c2)CC1 12.7%
C[C@@]1(C(NC(=O)Cc2ccc(C(F)(F)F)cc2)c2ccc(-c3ccccc3)cc2)C[C@H]1C1CCCCC1 (some centres undefined) 0.415%
CC(=O)Nc1ccc(NC(=O)Cn2c(=O)n(-c3ccccc3)c(=O)c3oc4ccccc4c32)cc1 0.53%
COc1ccc(C2N(C(=O)c3ccccc3)CCN2C(=O)c2ccccc2)cc1 -5.49%

A stretch from further up, as a working copy:
Activity change, negative = inhibition, inactive:
CC[C@H](NC(C)C)[C@H](O)c1ccc(O)c(O)c1 -12.7% [at 16.9 µM]
CSc1ccc(CN(C)Cc2cc(=O)oc3c(C)c(C)ccc23)cc1 8.56%
